Patent US11535597B2, “Photoreactive ligands and uses thereof” (The Scripps Research Institute, priority 2017, dated 2022)
Some results were stated once for a whole list of compounds, not compound by compound. Some compounds share one range, which may span the group rather than tell each member.

Each molecule was assayed on proteins in HEK293T cells (assay: MS-based mapping of FFF probe-modified peptides (isoTOP, sites of labeling)). Settings: Accession P30519 (r933 prints P03519); residues of probe-labeled peptide; family Enzymes.
Assay type: binding, human
Description: Preparation and analysis was adapted from methods previously reported. In brief, for global mapping of fragment probe-modified peptides, separate 10 cm dishes of cells were treated with probes (200-250 μM) in 3.0 mL of DMEM (serum-free) and (if applicable) competitor ligands, proteomes harvested and subjected to click chemistry conditions with either light or heavy isotopically labeled biotin-TEV-azide (10 μL of 5 mM stocks in DMSO, final concentration=100 μM), TCEP, ligand and CuSO4 as detailed above. The samples were allowed to react for 1 h at which point the samples were centrifuged (16,000 g, 5 min, 4° C.). The resulting pellets were sonicated in ice-cold methanol (500 μL) and the resuspended light- and heavy-labeled samples were then combined and centrifuged (16,000 g, 5 min, 4° C.). The pellets were then solubilized in PBS containing 1.2% SDS (1 mL) with sonication and heating (5 min, 95° C.). Samples were transferred to falcon tubes containing DPBS (5 mL), to which a 100 μL of streptavidin-agarose beads slurry was added. After incubation, the beads (3 hr) were pelleted by centrifugation (1,400 g, 3 min) and were washed (2×10 mL PBS and 2×10 mL water). The beads were transferred to eppendorf tubes with 1 mL DPBS, centrifuged (1,400 g, 3 min), and resuspended in PBS containing 6 M urea. To this was added 10 mM DTT (25 μL of a 200 mM stock in water) and the beads were incubated at 65° C. for 15 mins. 20 mM iodoacetamide (25 μL of a 400 mM stock in water) was then added and allowed to react at 37° C. for 30 mins with shaking. The bead mixture was diluted with 900 μL PBS, pelleted by centrifugation (1,400 g, 3 min), and resuspended in 200 μL 2M urea (DPBS) containing trypsin and CaCl2 as described above. The beads were separated from the digest by centrifugation (1,000 g, 1 min), washed (2×1 mL PBS and 2×1 mL water) and then transferred to fresh eppendorfs with 1 mL water. The washed beads were washed once further in 150 μL TEV buffer (50 mM Tris, pH 8, 0.5 mM EDTA, 1 mM DTT) by centrifugation (1,400 g, 3 min) and the resuspended in 150 μL TEV buffer. 5 μL TEV protease (80 μM) was added and the reactions were rotated overnight at 29° C. The TEV digest was separated from the beads by centrifugation (1,400 g, 3 min) and the beads were washed once with water (100 μL). The samples were then acidified to a final concentration of 5% (v/v) formic acid and stored at −80° C. prior to analysis.
The resulting probe-modified peptides were collected for MS analysis, which was performed as described above with differences in the salt bumps applied in the chromatographic gradients which in this case were 0%, 30%, 60%, 90% and 100% NH4OAc (500 μM). The protein identification searches of the MS data were performed with the following changes applied to identify the peptides modified with the corresponding fragment probe and the cleaved TEV tag. All amino acids were considered as possible residues for modification. To facilitate the computational searches, sets of up to 3 amino acids were searched using ProLuCID and filtered with DTASelect as described above. […] The isoTOP ratios for probe labeled peptides were quantified using the in-house software CIMAGE.
For each protein in the site-of-labeling dataset, the UniProtKB accession number was used to map and collect relevant structures from the RCSB Protein Data Bank (PDB) fulfilling the following criteria: structures determined by X-ray crystallography, wild-type protein, Homo sapiens as the sole source organism. […] Fpocket 2.0 was used to detect potential binding pockets for the resultant structures with all parameters set at recommended default. Pockets with volume less than 500 Å^3 were removed from output prior to further analysis. Residues surrounding fpocket predicted binding pockets for each protein were collected to determine the number of residues overlapping with isoTOP peptides.
With `C#CCCC1(CCC(=O)N2CCC(c3ccccc3)CC2)N=N1` [probe 8, 3-(3-(But-3-yn-1-yl)-3H-diazirin-3-yl)-1-(4-phenylpiperidin-1-yl)propan-1-one] the “Labeled Peptide of HMOX2 Heme oxygenase 2” value (“Labeled Peptide” below) was 48-55.
`C#CCCC1(CCC(=O)NCc2ccc3sccc3c2)N=N1` [probe 4, N-(Benzo[b]thiophen-5-ylmethyl)-3-(3-(but-3-yn-1-yl)-3H-diazirin-3-yl)propanamide] was tested, and the “Labeled Peptide” value was 48-55.
For `C#CCCC1(CCC(=O)NCCc2ccc3c(c2)OCO3)N=N1` [probe 15, N-(2-(Benzo[d][1,3]dioxol-5-yl)ethyl)-3-(3-(but-3-yn-1-yl)-3H-diazirin-3-yl)propanamide], the “Labeled Peptide” value was 48-55.
For `C#CCCC1(CCC(=O)NC23CC4CC(CC(C4)C2)C3)N=N1` [probe 14, N-((3s,5s,7s)-Adamantan-1-yl)-3-(3-(but-3-yn-1-yl)-3H-diazirin-3-yl)propanamide], the “Labeled Peptide” value was 48-55.
`C#CCCC1(CCC(=O)Nc2ccc3oc(=O)ccc3c2)N=N1` [probe 3, 3-(3-(But-3-yn-1-yl)-3H-diazirin-3-yl)-N-(2-oxo-2H-chromen-6-yl)propanamide] was tested, and the “Labeled Peptide” value was 48-55.
